# Assay results from publication PMC5637322.
# Chains of the proteins cited; added tags and fusions are not shown. Residues count along the entry.
# UniProt P05106, residues 27-788: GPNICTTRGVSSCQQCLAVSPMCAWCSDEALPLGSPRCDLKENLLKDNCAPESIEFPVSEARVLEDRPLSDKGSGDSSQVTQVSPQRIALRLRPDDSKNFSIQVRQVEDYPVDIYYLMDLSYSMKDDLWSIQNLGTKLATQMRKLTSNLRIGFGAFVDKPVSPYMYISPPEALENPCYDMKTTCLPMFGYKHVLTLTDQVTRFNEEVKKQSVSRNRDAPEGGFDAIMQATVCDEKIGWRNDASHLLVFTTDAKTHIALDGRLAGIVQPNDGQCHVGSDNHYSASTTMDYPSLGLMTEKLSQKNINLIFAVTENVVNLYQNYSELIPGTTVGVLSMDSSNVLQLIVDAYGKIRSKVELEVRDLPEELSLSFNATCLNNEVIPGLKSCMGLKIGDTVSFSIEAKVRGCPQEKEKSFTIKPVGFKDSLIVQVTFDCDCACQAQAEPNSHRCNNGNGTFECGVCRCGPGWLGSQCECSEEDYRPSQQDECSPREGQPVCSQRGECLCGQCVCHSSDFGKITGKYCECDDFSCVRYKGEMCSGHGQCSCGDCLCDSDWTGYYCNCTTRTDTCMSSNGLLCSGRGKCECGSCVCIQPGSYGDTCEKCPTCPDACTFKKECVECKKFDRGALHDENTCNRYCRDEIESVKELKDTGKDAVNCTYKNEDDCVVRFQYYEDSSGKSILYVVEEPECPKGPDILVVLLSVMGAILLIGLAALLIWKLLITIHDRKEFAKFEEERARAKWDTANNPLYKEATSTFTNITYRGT
# UniProt Q96CG8, residues 31-243: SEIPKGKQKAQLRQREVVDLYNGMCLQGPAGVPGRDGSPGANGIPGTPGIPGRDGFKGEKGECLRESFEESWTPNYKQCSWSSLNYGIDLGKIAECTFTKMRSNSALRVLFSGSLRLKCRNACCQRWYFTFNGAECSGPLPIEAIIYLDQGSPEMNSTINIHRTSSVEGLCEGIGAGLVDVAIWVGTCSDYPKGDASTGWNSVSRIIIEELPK
# No constants are given. Whether binding was seen depends on the method and setting. Binding seen in cells or lysates may run through a third protein. Some binding calls cover weakened binding; strength is not graded here.
# Target: integrin β3 (human (endogenous in SKOV3)) (UniProt P05106)
# Test: co-IP; SKOV3 cell lysates pretreated with Protein A/G Sepharose beads, incubated with integrin β3 antibodies (Abcam) and IgG as control at 4 °C overnight; beads washed with PBS with 1% PMSF; Western blotting
substance,measurement,value
Collagen triple helix repeat containing-1 (CTHRC1) (from UniProt Q96CG8 31-243),binding,binds
